# Measurements: PubChem BioAssay AID445 (National Center for Advancing Translational Sciences (NCATS), 2006)
# This is one part of the list. Further columns of the screen follow, without active or inactive calls. Compounds called inactive in the main read-out are mostly missing here. Potencies come from curve fits of mixed quality, noted in brackets.
# Assay: IkB Signaling
# Conditions: ABC-DLBCL IkBa-CBG/CBR dual luciferase ratio (green luciferase fused to IkBa over red control in OCI-Ly3 lymphoma cells), 4 h
# Summary of the method: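 Luminescence ratio of IκBα-fused green versus native red beetle luciferase in OCI-Ly3 cells, 4 h post-doxycycline with compound; red signal alone, scaled from basal (0%) to zero light (-100%), flagged nonspecific or cytotoxic effects.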
# [1] = measured here: control luc red channel unless noted
compound,measurement,setting,value
CC(C)CC(=O)NCC(c1ccc2c(c1)OCO2)N1CCN(c2ccccc2F)CC1 (stereo not given),AC50,[1],"0.0126 µM [falling, full curve, poor fit]"
COC(=O)[C@H]1[C@@H]2C[C@H]3c4[nH]c5ccccc5c4CCN3C[C@@H]2CC[C@@H]1O,AC50,[1],"31.6 µM [falling, partial curve]"
N#C/C(=C(/O)COC(=O)c1ccc2c(c1)OCCO2)c1nc2ccccc2[nH]1,AC50,measured here: IkB-luc green channel,"31.6 µM [rising, single point]"
same,AC50,measured here: control luc red channel,"15.8 µM [falling, partial curve]"
Cc1oc2c(cc(NS(=O)(=O)c3ccc(Br)cc3)c3ccccc32)c1C(=O)OCc1ccccc1,AC50,[1],"3.98 µM [falling, partial curve]"
CN(C)c1ccc(C(=O)Nc2sc(Nc3ccccc3)nc2C(N)=O)cc1,AC50,[1],"0.794 µM [falling, full curve]"
COc1ccc(Cn2c(CCC(=O)Nc3ccc(Br)c(C)c3)nc3cccnc32)cc1,AC50,[1],"15.8 µM [falling, partial curve]"
COc1ccc2[nH]cc(CCNc3nc(-c4cccc(C#N)c4)nc4ccccc34)c2c1,AC50,[1],"5.01 µM [falling, single point] [measured here: IkB-luc green channel]"
CC1Cc2cc(S(=O)(=O)CCC(=O)Nc3cccc(F)c3)ccc2N1C(=O)C1CC1 (stereo not given),AC50,[1],"1 µM [rising, partial curve]"
CCOC(=O)C1CCC(CN(Cc2ccc(OC)cc2)S(=O)(=O)c2ccc(C)cc2)CC1 (stereo not given),AC50,[1],"20 µM [falling, single point]"
O=C(Nc1cc(Cl)cc(Cl)c1)c1ccc(F)c(S(=O)(=O)N2CCCC2)c1,AC50,[1],"20 µM [falling, partial curve]"
COC(=O)c1ccccc1NC(=O)c1cc2ccccn2n1,AC50,[1],"15.8 µM [falling, partial curve]"
O=C(Cn1ncn2c(cc3cc(F)ccc32)c1=O)NC1CCCCC1,AC50,[1],"3.16 µM [falling, partial curve]"
COc1ccc(Nc2ncnc3scc(-c4ccc(F)cc4)c23)cc1,AC50,[1],"39.8 µM [falling, single point]"
COc1ccc(NC(=O)c2sc3nc(C)c(C(=O)Nc4ccc(C)cc4C)c(-c4sccc4C)c3c2N)cc1,AC50,[1],"20 µM [falling, partial curve, poor fit]"
Cn1cccc1Cc1nnc(SCC(=O)Nc2cccc(Cl)c2)n1-c1ccc(F)cc1,AC50,[1],"12.6 µM [falling, partial curve]"
CCc1c(CN2CCN(c3ccc(F)cc3)CC2)csc1C,AC50,[1],"31.6 µM [falling, single point]"
O=S(=O)(c1ccccc1F)N(Cc1ccco1)Cc1nnc(-c2ccccc2Br)o1,AC50,[1],"15.8 µM [falling, partial curve]"
COc1ccccc1-c1cc(C(F)(F)F)nc(S(=O)(=O)CCCC(=O)Nc2ccccc2F)n1,AC50,[1],"2.51 µM [falling, full curve]"
O=C(COc1ccc(Cl)cc1)NCCc1csc(-c2ccc(C(F)(F)F)cc2)n1,AC50,[1],"39.8 µM [falling, single point]"
COc1cc2c(cc1NC(=O)COc1cc(C)cc(C)c1)oc1ccccc12,AC50,[1],"10 µM [falling, partial curve]"
CCOC(=O)N1CCC(NC(=O)c2cnn(-c3ccc(C)cc3)c2-n2cccc2)CC1,AC50,[1],"5.01 µM [rising, partial curve]"
O=C(NCc1ccccn1)C1CCCN(S(=O)(=O)c2ccc(Br)cc2)C1 (stereo not given),AC50,[1],"15.8 µM [falling, partial curve]"
COc1ccccc1-n1cnnc1SCC(=O)Nc1ncc(Cl)cc1Cl,AC50,[1],"12.6 µM [falling, partial curve]"
COc1ccc(NC(=O)c2cnc(N3CCOCC3)c3ccccc23)cc1OC,AC50,[1],"0.00631 µM [falling, full curve, poor fit]"
COc1cccc(CCNC(=O)c2ccc(Cn3c(SCc4ccccc4)nc4cccnc43)cc2)c1,AC50,[1],"10 µM [falling, partial curve]"
Cc1cccn2c(=O)c3cc(C(=O)NC(C)C)n(C)c3nc12,AC50,[1],"39.8 µM [falling, single point]"
COc1cccc(N2CCN(CC(=O)Nc3nc4c(s3)CC(C)CC4)CC2)c1 (stereo not given),AC50,[1],"15.8 µM [falling, partial curve]"
COc1ccc(-c2nc3ccccc3n2Cc2ccc(C(C)C)cc2)cc1,AC50,[1],"25.1 µM [falling, partial curve]"
CCOc1ccc(NC(=O)Cn2cc(C(=O)c3ccc(F)cc3)c(=O)c3cc4c(cc32)OCO4)cc1,AC50,[1],"39.8 µM [rising, single point] [measured here: IkB-luc green channel]"
Cc1nn2c(=O)cc(COC(=O)c3ccc(NC(=O)CCc4ccccc4)cc3)nc2s1,AC50,[1],"10 µM [falling, single point]"
Cc1cccc(OCCn2c(SCC(N)=O)nc3ccccc32)c1,AC50,[1],"6.31 µM [rising, partial curve]"
CCc1noc(-c2ccc(N3CCC(C)CC3)c([N+](=O)[O-])c2)n1,AC50,[1],"0.316 µM [rising, full curve]"
CCC(Sc1nc2cc3c(cc2c(=O)n1CCCCCC(=O)NCc1ccc2c(c1)OCO2)OCO3)C(=O)NCCCOC (stereo not given),AC50,[1],"39.8 µM [falling, single point]"
COc1ccc(N(C(=O)Nc2ccc(Cl)cc2)C2=NCCC2)cc1,AC50,[1],"12.6 µM [falling, partial curve]"
Cc1c(Cl)cccc1NC(=O)c1cc(-c2cccc(Cl)c2)on1,AC50,[1],"3.16 µM [falling, partial curve, poor fit]"
Cc1ccc(-c2cc(C(=O)NCCCN3CCOCC3)no2)cc1,AC50,[1],"15.8 µM [falling, partial curve]"
O=C(Nc1cccc(Br)c1)Nc1nc2c(s1)CCCCCC2,AC50,[1],"0.00631 µM [rising, full curve, poor fit]"
COc1cc2c(C(=O)N3CCN(c4cccc(Cl)c4)CC3)cn(C)c(=O)c2cc1OC,AC50,[1],"15.8 µM [falling, partial curve]"
CCc1ccc(CNC(=O)CN2C(=O)CSc3ccc(S(=O)(=O)N4CCOCC4)cc32)cc1,AC50,[1],"39.8 µM [falling, single point]"

# Two entries from above, as tab-separated lines.
compound	measurement	setting	value
COc1ccc(Cn2c(CCC(=O)Nc3ccc(Br)c(C)c3)nc3cccnc32)cc1	AC50	[1]	15.8 µM [falling, partial curve]
COc1ccc2[nH]cc(CCNc3nc(-c4cccc(C#N)c4)nc4ccccc34)c2c1	AC50	[1]	5.01 µM [falling, single point] [measured here: IkB-luc green channel]
